From patent publication US20030166056A1, “Transmembrane protein as a downstream target of neurotrophin and ephrin receptor tyrosine kinases, DNA encoding same and monoclonal antibodies thereto” (New York University, priority 2000, published 2003)
Results are given in words; binding and its absence hold for the method and conditions named. Some binding calls cover weakened binding; strength is not graded here.

Protein sequences, listed by entry. Tags and fused reporters are not part of them. Lines headed by an entry give the natural chain unless they say otherwise; changes in a name come on top.
UniProt P0A7C2: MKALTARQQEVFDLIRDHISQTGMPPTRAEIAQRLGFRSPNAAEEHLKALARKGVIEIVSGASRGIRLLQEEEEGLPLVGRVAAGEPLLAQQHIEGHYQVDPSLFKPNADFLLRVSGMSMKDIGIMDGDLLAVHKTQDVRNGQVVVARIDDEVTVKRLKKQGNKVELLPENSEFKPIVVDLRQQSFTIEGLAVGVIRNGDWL
UniProt P07174: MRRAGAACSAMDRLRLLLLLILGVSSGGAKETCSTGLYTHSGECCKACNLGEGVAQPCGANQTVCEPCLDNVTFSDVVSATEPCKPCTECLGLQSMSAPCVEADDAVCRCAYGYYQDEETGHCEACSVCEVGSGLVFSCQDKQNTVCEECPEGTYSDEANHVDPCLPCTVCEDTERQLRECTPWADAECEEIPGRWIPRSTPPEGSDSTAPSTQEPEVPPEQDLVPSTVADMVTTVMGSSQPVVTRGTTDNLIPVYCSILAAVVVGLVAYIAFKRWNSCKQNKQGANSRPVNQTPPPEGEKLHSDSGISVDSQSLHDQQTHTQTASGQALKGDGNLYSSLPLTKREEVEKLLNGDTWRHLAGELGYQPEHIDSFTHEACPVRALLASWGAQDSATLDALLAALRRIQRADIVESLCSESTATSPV

Columns and labels:
[1] = biological target: T1, entire cytoplasmic region of rat p75 fused to the LexA DNA binding domain (two-hybrid bait) (rat) (UniProt P0A7C2+P07174); assay: yeast two-hybrid
[2] = biological target: T1, entire cytoplasmic region of rat p75 fused to the LexA DNA binding domain (two-hybrid bait) (rat); assay: yeast two-hybrid screen (LexA system), survival in the absence of leucine

B1: carboxy terminal 250 amino acids of ARMS (two-hybrid library clone) (protein, not shown: large carriers)
chain: DEDESGTGRVQITPHCSKMIRTKRLKAKQRECASPQEHSAEPIRTFIKAKEYLSDALLDKKDSSDSGVRSNESSPNHSLHNEAADDSQLEKANLIELEDEGHSGKRGMPHSLSGLQDPIIARMSICSEDKKSPSECSLIASSPEESWPACQKAYNLNRTPSTVTLNNNTAPTNRANQNFDEIEGIRETSQVILRPGPSPNPTAVQNENLKSMAHKRSQRSSYTRLSKDASELHAASSESTGFGEERESIL
- binding [1]: binds
- binding [2]: binds
